In patent publication US20040053989A1, “Dithiolthione compounds for the treatment of neurological disorders and for memory enhancement” (Patrick Prendergast, priority 1999, published 2004):
“Also recorded” adds a separate entry of the source. For at least one compound, name, drawing or mass did not settle the structure.

What was measured:
[1] = tested on: neurons and clonal cell lines; experiment: Attenuation of amyloid-β toxicity; assay type: cell-based; details: toxicity restored by subsequent addition of ferrous iron
From the text: In vitro, amyloid-β is toxic to neurons and clonal cell lines.

[2] = H2O2-dependent oxidation of 3,3′-diaminobenzidine (DAB) by lesions in AD brain tissue sections after chelator treatment; parameters: species or system human; details: prior treatment of AD brain tissue sections
From the text: AD is associated with abnormalities of iron metabolism including increased levels of free iron as well as altered levels of iron transport and storage proteins. […] In addition to the NFT and Aβ deposits, redox active metals can be identified in the cytoplasm by the same DAB reaction. […] Although in situ histochemical techniques lack the sensitivity to detect copper, copper (as well as iron) could contribute to the redox activity. The relative effectiveness of copper- and iron-selective chelating agents was used to remove the lesion-dependent redox activity, which provided evidence for both copper- and iron-mediated redox activity in AD. […] Also, DAB oxidation was inhibited by chelation of metals with […]

SMILES: CC(=O)N(O)CCCCCNC(=O)CCC(=O)N(O)CCCCCNC(=O)CCC(=O)N(O)CCCCCN [DFX, deferoxamine]
- attenuation of amyloid-β toxicity, dose dependence [1]: attenuated in a dose-dependent fashion
- inhibition of lesion-associated DAB oxidation ([2]; 1 mM chelator): barely noticeable
- inhibition of lesion-associated DAB oxidation ([2]; 10 mM chelator): greatly reduced; also recorded: reduced the DAB staining by only about half
- inhibition of lesion-associated DAB oxidation ([2]; 100 mM chelator): incompletely effective
